# These are yes or no findings as the source states them, for the method shown. Binding seen in cells or lysates may run through a third protein. Some results given as binding are weak or reduced against the parent protein; the word gives no strength.
# Amino acid sequences for entries named in this document (tags omitted). A change or cut given only in a name is not applied to a line headed by its entry.
# UniProt Q99683: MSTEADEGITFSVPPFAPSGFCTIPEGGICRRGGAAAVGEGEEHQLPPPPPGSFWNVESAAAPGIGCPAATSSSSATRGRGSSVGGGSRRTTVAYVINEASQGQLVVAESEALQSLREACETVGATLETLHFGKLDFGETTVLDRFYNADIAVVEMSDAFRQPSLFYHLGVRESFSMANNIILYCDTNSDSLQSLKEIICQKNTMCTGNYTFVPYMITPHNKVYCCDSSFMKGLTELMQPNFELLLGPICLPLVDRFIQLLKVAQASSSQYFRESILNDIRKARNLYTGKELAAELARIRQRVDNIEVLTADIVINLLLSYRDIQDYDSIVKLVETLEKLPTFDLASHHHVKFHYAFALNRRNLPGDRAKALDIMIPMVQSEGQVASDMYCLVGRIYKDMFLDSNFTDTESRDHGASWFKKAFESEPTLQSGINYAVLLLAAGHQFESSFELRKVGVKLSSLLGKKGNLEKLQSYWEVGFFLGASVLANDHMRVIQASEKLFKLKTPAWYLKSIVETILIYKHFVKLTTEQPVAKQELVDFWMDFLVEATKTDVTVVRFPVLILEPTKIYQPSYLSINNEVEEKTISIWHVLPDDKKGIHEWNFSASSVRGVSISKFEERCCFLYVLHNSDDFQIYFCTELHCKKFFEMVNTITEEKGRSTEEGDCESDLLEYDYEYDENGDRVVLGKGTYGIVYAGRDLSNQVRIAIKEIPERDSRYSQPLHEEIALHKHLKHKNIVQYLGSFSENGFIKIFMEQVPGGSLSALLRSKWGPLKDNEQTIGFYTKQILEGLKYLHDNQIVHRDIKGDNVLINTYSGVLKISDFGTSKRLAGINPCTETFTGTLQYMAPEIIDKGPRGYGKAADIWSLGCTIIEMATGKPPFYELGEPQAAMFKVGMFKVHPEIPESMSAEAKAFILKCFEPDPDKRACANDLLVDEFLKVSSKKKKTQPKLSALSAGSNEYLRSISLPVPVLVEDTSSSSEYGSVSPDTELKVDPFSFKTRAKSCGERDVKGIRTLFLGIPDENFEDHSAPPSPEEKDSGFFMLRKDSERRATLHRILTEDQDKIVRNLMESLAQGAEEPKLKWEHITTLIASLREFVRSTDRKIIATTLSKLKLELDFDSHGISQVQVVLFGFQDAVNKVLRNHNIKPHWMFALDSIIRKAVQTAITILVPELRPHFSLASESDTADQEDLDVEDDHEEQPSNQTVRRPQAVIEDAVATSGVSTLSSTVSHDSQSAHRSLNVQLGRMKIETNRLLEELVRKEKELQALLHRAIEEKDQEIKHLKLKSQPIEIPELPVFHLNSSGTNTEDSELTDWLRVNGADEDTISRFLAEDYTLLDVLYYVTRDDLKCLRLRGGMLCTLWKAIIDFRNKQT
# Molecular target: Myc-ASK1N (Myc-tagged N-terminal amino acids 1 to 678 of apoptosis signal-regulated kinase 1) (Homo sapiens (Human)) (UniProt Q99683)
# Experiment: co-immunoprecipitation with anti-HA from HEK-293T lysate, Western blot for HA-ASK1N and Myc-ASK1N
substance,measurement,value
HA-ASK1N (HA-tagged N-terminal amino acids 1 to 678 of apoptosis signal-regulated kinase 1) (from UniProt Q99683 1-678),binding,binds
